Here are results for 67 compounds from PubChem BioAssay AID662 (National Center for Advancing Translational Sciences (NCATS), 2007).

The list shows a part of the results. Shown are side measurements of this screen, not its main read-out; they come without a call. Compounds called inactive in the main read-out are mostly missing here. Potencies come from curve fits of mixed quality, noted in brackets.

This assay can be described thus: Cell signaling CRE-BLA (Fsk stim). The settings on record: CHO CRE-bla reporter (cAMP response element driving beta-lactamase), forskolin EC10, beta-lactamase ratio; measured here: 460 nm blue channel. The procedure, abridged:
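CRE-bla CHO reporter cells treated with compound titration plus EC10 NKH 477 (water-soluble forskolin), incubated 3 h at 37 °C; CCF4 loading 2 h at room temperature, 460/530 nm emission ratio read, AC50 values derived for positive or negative modulators.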
Consider `Oc1ccc(C=NCC2COc3ccccc3O2)cc1` (configuration not stated), for which the AC50 is 0.316 µM [falling, full curve].

Consider `CN(C)c1ccc(CN2CCCC(O)C2)cc1` (configuration not stated), for which the AC50 is 0.00316 µM [falling, full curve, poor fit].

As to `CC(C)NC(=O)NC(=O)COC(=O)Cc1ccsc1`, the AC50 is 3.98 µM [falling, partial curve].

As to `CN(C)c1ncc2ncc(=O)n(C)c2n1`, the AC50 was 12.6 µM [rising, partial curve]. `NC(=O)c1cc(-c2ccccc2)nc(N2CCOCC2)n1`: the AC50 is 3.98 µM [falling, full curve]. With `CCOC(=O)CNC(=O)C(=O)c1c(O)[nH]c2ccccc12`, the AC50 was 25.1 µM [falling, single point]. Consider `CN(C)c1ncc2nc(-c3ccccc3)c(=O)n(CCc3ccccc3)c2n1`, for which the AC50 is 0.501 µM [rising, full curve]. In the case of `O=[n+]1cc(-c2cc3ccccc3o2)n([O-])c2c1CCCC2`, the AC50 was 0.794 µM [falling, full curve]. `CCc1nc(NCC2CCCO2)c2oc3ccccc3c2n1` (configuration not stated): the AC50 is 12.6 µM [rising, partial curve].

With `COC(=O)[C@@]1(Cc2ccc(F)cc2)[C@H]2c3cc(C(=O)N4CCCC4)n(Cc4ccc(Cl)c(C(F)(F)F)c4)c3C[C@H]2CN1C(=O)c1ccccc1`, the AC50 is 1.58 µM [rising, partial curve].

Regarding `COc1cc(-c2nnc(COc3ccc4cc(Br)ccc4c3)o2)cc(OC)c1OC`, the AC50 was 3.16 µM [rising, partial curve]. For `CCCn1c(NCc2ccc(C)o2)nc2ccccc21` the value was 5.01 µM [falling, single point]; for `O=S(=O)(CCN1CCN(C(c2ccccc2)c2ccccc2)CC1)C(F)(F)F`, 3.16 µM [falling, single point]; for `Cc1cc(NC(=O)NC(=O)c2ccc(F)cc2F)n[nH]1`, 0.00631 µM [falling, full curve, poor fit]. Consider `CCCCN(CC)CCNC(=O)c1cc2c(C)nc3ccccc3c2o1`, for which the AC50 is 20 µM [rising, single point].

As for `CC(=O)NC(O)C(=O)c1ccco1` (configuration not stated), the AC50 was 25.1 µM [rising, single point]. On to `CCCn1c(=O)c2ccccc2n2c(SCCOc3ccccc3F)nnc12`, for which the AC50 is 12.6 µM [rising, partial curve]. Under `CCOC(=O)c1oc2ccccc2c1CSc1nnc(-c2ccco2)o1` stands 12.6 µM [rising, partial curve]; under `COCCNc1nc(-c2ccoc2)nc2ccccc12`, 15.8 µM [rising, partial curve]; under `CCOC(=O)c1ccccc1Nc1cc(C)nc2nc(C)nn12`, 5.01 µM [rising, partial curve]. Under `CC(=O)Nc1ccc(C(=O)Nc2ccc3c(c2)OCO3)cc1` stands 0.501 µM [falling, partial curve, poor fit].

As to `CCN1CCN(CCCNC(=O)c2cn(CCOC)c(=O)c3c2c2ccccc2n3C)CC1`, the AC50 was 0.0316 µM [falling, partial curve]. Under `O=C(CCN1C(=O)C2C3C=CC(C3)C2C1=O)N1CCN(c2ccc(F)cc2)CC1` (configuration not stated) stands 1.26 µM [falling, partial curve]; under `O=C(Nc1ccccc1Cl)c1cnccn1`, 5.01 µM [rising, single point]; under `COc1ccc(NC(=O)COc2nc(N(C)C)nc(N(C)C)n2)cc1`, 12.6 µM [rising, single point]. For `C=CCSc1nc2c(c(=O)[nH]c(=O)n2C)n1C(C)C` the value was 10 µM [rising, partial curve]. As to `CCC(C)[C@@H](C(=O)Nc1ccc(OC)c(OC)c1)N1Cc2ccccc2C1=O` (some centres not stated), the AC50 was 3.98 µM [rising, full curve]. Under `CSc1nc2ccc(NS(=O)(=O)c3ccc(Cl)s3)cc2s1` stands 6.31 µM [rising, partial curve]; under `COc1ccc(-c2nnc(SCC(=O)Nc3ncc(C)s3)n2-c2ccccc2)cc1OC`, 6.31 µM [rising, partial curve].

With `COc1ccc(CC(=O)N2CCN(c3ccccn3)CC2)cc1`, the AC50 is 5.01 µM [falling, partial curve]. On to `CCc1ccccc1NS(=O)(=O)c1cc(C)ccc1OC`, for which the AC50 was 12.6 µM [rising, partial curve]. Under `Cn1nc(-c2ccc(N3CCCCC3)c(NC(=O)c3ccco3)c2)c2ccccc2c1=O` stands 1.58 µM [rising, full curve]; under `CCOC(=O)N1CCC(NC(=O)CSc2cc(=O)n(CC)c3ccccc23)CC1`, 3.98 µM [rising, single point]; under `Cc1cccc(-n2c(=O)[nH]c3c(C(N)=O)nc(C(C)C)nc32)c1`, 10 µM [rising, partial curve]. For `COc1ccc(NC(=O)c2ocnc2C)cc1OC` the value was 25.1 µM [rising, single point]; for `N#CCCn1c(=O)c(-c2cccc(C#N)c2)nc2cnc(Oc3cccc(Cl)c3)nc21`, 15.8 µM [rising, single point]. As to `Cc1ccc(NC(=O)CC2SCCNC2=O)cc1Cl` (configuration not stated), the concentration at half-maximal activity (AC50) was 25.1 µM [rising, single point].

Consider `Oc1c(C(c2cccc(F)c2)N2CCN(Cc3ccccc3)CC2)sc2ncnn12` (configuration not stated), for which the AC50 was 6.31 µM [falling, partial curve]. For `COc1ccc2nc(SCc3nc(N)nc(Nc4ccccc4)n3)[nH]c2c1` the value was 1.58 µM [rising, partial curve]; for `COc1ccc(CCN(Cc2cc3cccc(C)c3[nH]c2=O)C(=O)N2CCCC2)cc1OC`, 12.6 µM [rising, partial curve].

With `O=C(N1CCOCC1)N(Cc1ccccc1)c1ccccn1`, the concentration at half-maximal activity (AC50) was 25.1 µM [rising, single point].

As for `CCCCn1cnc2c(c(CC#N)nn2-c2ccccc2)c1=N`, the AC50 was 5.01 µM [rising, single point].

With `COC(=O)c1ccc(Oc2cc(C)nc(SC)n2)cc1`, the AC50 was 25.1 µM [rising, single point]. Under `COc1ccc(CCNc2c(N)n(Cc3ccccc3)c(=O)[nH]c2=O)cc1OC` stands 10 µM [rising, single point]; under `CCCn1c(NC(=O)c2cccc(S(=O)(=O)N3CCCC3)c2)nc2ccccc21`, 10 µM [falling, partial curve]; under `COc1ccc(C2C(C#N)=C(/N=C/N3CCN(C)CC3)OC3=C2C(=O)CC(C)(C)C3)cc1OC` (configuration not stated), 0.158 µM [rising, full curve, poor fit]. Consider `O=C(C1CCC1)N1CCc2cc(S(=O)(=O)Nc3ccc4c(c3)OCO4)ccc21`, for which the AC50 is 5.01 µM [rising, partial curve]. For `COC(=O)c1cc(OC)c(OC)cc1NC(=O)c1ccccc1` the value was 0.316 µM [rising, full curve]; for `CCCCCn1c(N2CCN(c3cccc(Cl)c3)CC2)nc2c1c(=O)[nH]c(=O)n2C`, 15.8 µM [falling, partial curve, poor fit]; for `COC(=O)[C@H](C)NC(=O)Nc1cc(OC)ccc1OC`, 20 µM [falling, partial curve]. Regarding `CN1CCCN(C(=O)Cc2c(Cl)cccc2Cl)c2nc3ccccc3nc21`, the AC50 is 6.31 µM [rising, single point].

For the compound `Cc1cc(NC(=O)CSc2nnc3c(C)cc4cc5c(cc4n23)OCO5)no1`, the AC50 is 2 µM [rising, single point]. For `CCCC(=O)N1CCN(c2ccc(NC(=O)c3cc4ccccc4o3)cc2Cl)CC1` the value was 25.1 µM [falling, single point]; for `Nc1c(NCCC2=CCCCC2)c(=O)[nH]c(=O)n1Cc1ccccc1`, 10 µM [rising, partial curve]. On to `Cc1ccc(Cn2ccc(NC(=O)c3c(-c4ccccc4Cl)noc3C)n2)cc1`, for which the AC50 is 0.126 µM [falling, full curve].

In the case of `CC(C)Oc1ccc2c3c(c(=O)oc2c1)CCC3`, the AC50 was 10 µM [rising, partial curve].

For the compound `Cc1cc(OCCSc2nnc(-c3cccs3)n2C)ccc1Cl`, the AC50 is 10 µM [falling, single point]. Under `O=C1N2CCSC2=NC1(Nc1ccccn1)C(F)(F)F` (configuration not stated) stands 3.16 µM [falling, partial curve]; under `NC(=O)C1(N2CCCCC2)CCN(c2ccc3nnc(-c4ccccc4)n3n2)CC1`, 10 µM [rising, partial curve]; under `COc1cccc(NC(=O)Nc2nnc(N3CCCCC3C)s2)c1` (configuration not stated), 25.1 µM [falling, single point]. Under `O=C(CN1C(=O)c2cccc3cccc1c23)Nc1ccc(S(=O)(=O)N2CCOCC2)cc1` stands 25.1 µM [rising, single point]; under `COc1cc2c(cc1NC(=O)c1ccco1)CCCC2`, 0.00316 µM [falling, full curve, poor fit]; under `COC(=O)C1=C(C)NC2=C(C(=O)CC(c3cccs3)C2)C1c1ccsc1` (configuration not stated), 12.6 µM [rising, single point]. Consider `O=C(NCCOc1ccccc1)c1n[nH]c(=O)c2ccccc12`, for which the half-maximal activity concentration (AC50) is 10 µM [rising, partial curve]. For `C=Cc1c(C)c2cc3nc(cc4[nH]c(cc5nc(cc1[nH]2)C(C)=C5CCC(=O)O)c(CCC(=O)OC)c4C)[C@@]1(C)C3=CC=C(C(=O)OC)[C@H]1C(=O)OC` (tested in a mixture with another compound) the value was 12.6 µM [rising, single point]. For `COc1cccc(Cn2c(=O)c(-c3ccc(F)c(F)c3)nc3cncnc32)c1` the value was 15.8 µM [rising, partial curve]; for `CCOC(=O)c1oc2ccccc2c1NC(=O)c1ccc(S(=O)(=O)N2CCCC2)cc1`, 2 µM [rising, full curve].

Broadly, the AC50 is the midpoint of the concentration-response curve, whichever way the signal moves.
